The text below walks through data of PMC7062854.

Chains of the proteins cited; added tags and fusions are not shown.
UniProt O75533: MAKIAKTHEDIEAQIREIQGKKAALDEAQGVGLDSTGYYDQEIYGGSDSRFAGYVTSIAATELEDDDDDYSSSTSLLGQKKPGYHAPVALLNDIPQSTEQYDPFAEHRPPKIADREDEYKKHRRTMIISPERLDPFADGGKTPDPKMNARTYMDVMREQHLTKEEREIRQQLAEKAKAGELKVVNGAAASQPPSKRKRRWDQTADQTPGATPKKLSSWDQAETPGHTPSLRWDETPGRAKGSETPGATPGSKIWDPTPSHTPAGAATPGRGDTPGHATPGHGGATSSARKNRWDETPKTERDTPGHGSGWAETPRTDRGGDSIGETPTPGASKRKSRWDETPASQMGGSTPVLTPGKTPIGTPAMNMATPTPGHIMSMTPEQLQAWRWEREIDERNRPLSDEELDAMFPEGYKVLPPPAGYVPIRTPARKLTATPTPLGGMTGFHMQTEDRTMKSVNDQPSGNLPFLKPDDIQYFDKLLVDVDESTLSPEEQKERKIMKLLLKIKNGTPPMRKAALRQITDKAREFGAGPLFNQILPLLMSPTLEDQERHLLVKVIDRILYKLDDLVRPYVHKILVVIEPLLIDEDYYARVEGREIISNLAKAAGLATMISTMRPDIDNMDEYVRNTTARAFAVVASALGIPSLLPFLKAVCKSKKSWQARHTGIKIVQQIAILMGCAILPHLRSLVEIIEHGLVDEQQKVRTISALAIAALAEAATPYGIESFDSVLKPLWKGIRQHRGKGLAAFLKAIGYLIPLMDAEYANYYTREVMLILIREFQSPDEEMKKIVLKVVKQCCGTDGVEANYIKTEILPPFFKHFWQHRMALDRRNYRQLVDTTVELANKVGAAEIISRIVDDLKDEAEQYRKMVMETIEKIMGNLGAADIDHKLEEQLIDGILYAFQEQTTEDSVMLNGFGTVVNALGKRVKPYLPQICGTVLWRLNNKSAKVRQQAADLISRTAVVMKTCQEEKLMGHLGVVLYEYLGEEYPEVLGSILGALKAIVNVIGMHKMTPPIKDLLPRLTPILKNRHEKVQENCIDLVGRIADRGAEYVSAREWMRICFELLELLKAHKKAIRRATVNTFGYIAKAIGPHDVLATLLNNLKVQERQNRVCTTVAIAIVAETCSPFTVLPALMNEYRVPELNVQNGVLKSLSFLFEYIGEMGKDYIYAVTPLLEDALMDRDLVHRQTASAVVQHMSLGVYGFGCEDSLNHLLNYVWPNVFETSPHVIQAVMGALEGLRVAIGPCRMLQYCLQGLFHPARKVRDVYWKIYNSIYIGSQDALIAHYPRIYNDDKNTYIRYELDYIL
UniProt Q13435: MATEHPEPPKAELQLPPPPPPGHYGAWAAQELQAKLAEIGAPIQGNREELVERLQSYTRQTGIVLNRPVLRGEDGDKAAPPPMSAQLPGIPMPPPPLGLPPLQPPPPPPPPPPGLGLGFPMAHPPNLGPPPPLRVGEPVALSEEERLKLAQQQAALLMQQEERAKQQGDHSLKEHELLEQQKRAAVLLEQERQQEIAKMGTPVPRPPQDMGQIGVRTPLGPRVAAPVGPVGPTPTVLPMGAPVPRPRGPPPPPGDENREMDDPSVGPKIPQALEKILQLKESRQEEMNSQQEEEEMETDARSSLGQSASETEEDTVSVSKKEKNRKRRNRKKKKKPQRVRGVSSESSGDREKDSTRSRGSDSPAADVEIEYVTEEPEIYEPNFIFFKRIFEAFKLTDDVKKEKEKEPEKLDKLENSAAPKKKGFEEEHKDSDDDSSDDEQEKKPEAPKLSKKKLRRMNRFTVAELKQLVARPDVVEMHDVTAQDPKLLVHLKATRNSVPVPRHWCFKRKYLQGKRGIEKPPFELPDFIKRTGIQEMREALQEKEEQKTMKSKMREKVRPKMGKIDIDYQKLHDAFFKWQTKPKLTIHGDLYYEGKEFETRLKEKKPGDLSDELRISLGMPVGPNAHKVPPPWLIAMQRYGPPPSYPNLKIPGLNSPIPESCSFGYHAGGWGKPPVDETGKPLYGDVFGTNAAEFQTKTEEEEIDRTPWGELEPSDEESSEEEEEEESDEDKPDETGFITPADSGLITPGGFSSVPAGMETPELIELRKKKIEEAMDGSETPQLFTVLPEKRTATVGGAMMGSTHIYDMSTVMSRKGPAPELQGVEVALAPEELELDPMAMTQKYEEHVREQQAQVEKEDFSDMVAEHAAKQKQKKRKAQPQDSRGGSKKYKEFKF

In the assay the target is SF3B1 (human (endogenous in A549 and BZR-T33)) (UniProt O75533). Briefly: co-IP; anti-SF3B1 immunoprecipitation (anti-IgG as negative control) of extracts from control or RNF113A-depleted A549 or BZR-T33 cells, treated or not with Cisplatin, followed by anti-SF3B2 Western blot. Background: Immunoblotting shows a protein as a band on a membrane.

Results are given in words; binding and its absence hold for the method and conditions named. Binding seen in cells or lysates may run through a third protein. Some binding calls cover weakened binding; strength is not graded here.

Turning to SF3B2 (from UniProt Q13435 1-895), the binding result is “binds”.
